PMC10743020
No constants are given. Whether binding was seen depends on the method and setting. In cells and extracts the contact can be indirect. A yes stands for co-enrichment or nearness to the bait. Other partners may have been found.

Chains of the proteins cited; added tags and fusions are not shown. Residues count along the entry.
UniProt Q91W90, residues 34-417: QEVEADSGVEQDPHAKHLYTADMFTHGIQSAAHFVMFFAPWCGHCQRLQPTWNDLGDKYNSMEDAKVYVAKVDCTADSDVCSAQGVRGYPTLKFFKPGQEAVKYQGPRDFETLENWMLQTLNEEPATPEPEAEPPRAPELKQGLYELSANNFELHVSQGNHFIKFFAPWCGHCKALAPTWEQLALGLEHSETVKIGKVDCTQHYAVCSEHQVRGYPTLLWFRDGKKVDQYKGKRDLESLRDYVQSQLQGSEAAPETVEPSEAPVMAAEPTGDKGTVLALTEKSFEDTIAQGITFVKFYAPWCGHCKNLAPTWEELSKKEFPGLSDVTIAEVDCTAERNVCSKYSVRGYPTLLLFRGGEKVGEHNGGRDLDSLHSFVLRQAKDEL
UniProt P38647, residues 47-679: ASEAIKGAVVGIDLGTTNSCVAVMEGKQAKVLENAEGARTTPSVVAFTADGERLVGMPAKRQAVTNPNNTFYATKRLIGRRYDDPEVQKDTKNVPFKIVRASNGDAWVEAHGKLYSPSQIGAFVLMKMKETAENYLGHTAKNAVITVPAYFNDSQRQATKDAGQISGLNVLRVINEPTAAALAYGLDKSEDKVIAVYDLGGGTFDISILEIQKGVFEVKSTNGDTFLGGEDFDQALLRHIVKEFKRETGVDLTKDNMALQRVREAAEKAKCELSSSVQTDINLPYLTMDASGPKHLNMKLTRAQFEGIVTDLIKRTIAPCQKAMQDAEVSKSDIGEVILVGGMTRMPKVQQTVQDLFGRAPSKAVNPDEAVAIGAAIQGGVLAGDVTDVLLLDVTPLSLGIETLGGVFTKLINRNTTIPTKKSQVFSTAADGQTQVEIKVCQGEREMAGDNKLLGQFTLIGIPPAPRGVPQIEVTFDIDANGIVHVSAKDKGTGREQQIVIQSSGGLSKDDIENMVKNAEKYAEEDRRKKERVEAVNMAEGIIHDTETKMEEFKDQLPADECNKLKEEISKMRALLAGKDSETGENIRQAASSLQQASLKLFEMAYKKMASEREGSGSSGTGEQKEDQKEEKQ

B1: PRDX6 (protein, UniProt O08709 1-224)
chain: MPGGLLLGDEAPNFEANTTIGRIRFHDFLGDSWGILFSHPRDFTPVCTTELGRAAKLAPEFAKRNVKLIALSIDSVEDHLAWSKDINAYNGETPTEKLPFPIIDDKGRDLAILLGMLDPVEKDDNNMPVTARVVFIFGPDKKLKLSILYPATTGRNFDEILRVVDSLQLTGTKPVATPVDWKKGESVMVVPTLSEEEAKQCFPKGVFTKELPSGKKYLRYTPQP

Biological target: Thioredoxin domain-containing 5 (TXNDC5) (mouse (endogenous in AML12)) (UniProt Q91W90)
Experiment: affinity purification with mass spectrometry; immunoprecipitation of AML12 WT and TXNDC5-KO lysates with rabbit anti-TXNDC5 on protein A magnetic beads, overnight at 4 °C, PBS-T washes, glycine pH 2.0 elution; LC-MS/MS; proteins found in WT and absent in KO

Molecule	binding
HSPA9 (from UniProt P38647 47-679)	binds
B1	binds
